Results are given in words; binding and its absence hold for the method and conditions named. Some entries that bind do so weakly or less than the wild type.
Biological target: kinase domain of human CDK12 (residues 715-1052) (human) (UniProt Q9NYV4)
Test: crystal structure; purified CDK12/CycK complex (10 mg/ml; 25 mM HEPES pH 7.5, 150 mM NaCl, 1 mM TCEP) incubated with YJZ5118 30 min on ice; hanging drop at 291 K, 0.1 M Bis-Tris pH 5.8, 21.5% PEG 3350, 0.4 M MgCl2; both purified

The chains behind the UniProt entries cited, without tags or fusion partners. Residues count along the entry.
UniProt Q9NYV4, residues 715-1052: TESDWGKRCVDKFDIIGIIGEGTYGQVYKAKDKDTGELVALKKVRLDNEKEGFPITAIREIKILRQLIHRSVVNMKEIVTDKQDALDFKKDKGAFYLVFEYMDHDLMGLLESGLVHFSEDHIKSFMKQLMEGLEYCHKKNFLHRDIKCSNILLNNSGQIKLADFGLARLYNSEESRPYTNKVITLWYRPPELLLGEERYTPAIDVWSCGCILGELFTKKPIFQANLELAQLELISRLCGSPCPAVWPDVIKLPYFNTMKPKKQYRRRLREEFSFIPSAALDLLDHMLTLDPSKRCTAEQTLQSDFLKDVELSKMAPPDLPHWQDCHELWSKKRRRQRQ

B1: cyclin box domain of human Cyclin K (residues 1-267) (domain or fragment, UniProt O75909 1-267)
chain: MKENKENSSPSVTSANLDHTKPCWYWDKKDLAHTPSQLEGLDPATEARYRREGARFIFDVGTRLGLHYDTLATGIIYFHRFYMFHSFKQFPRYVTGACCLFLAGKVEETPKKCKDIIKTARSLLNDVQFGQFGDDPKEEVMVLERILLQTIKFDLQVEHPYQFLLKYAKQLKGDKNKIQKLVQMAWTFVNDSLCTTLSLQWEPEIIAVAVMYLAGRLCKFEIQEWTSKPMYRRWWEQFVQDVPVDVLEDICHQILDLYSQGKQQMPH
For B1, the binding was “binds”.
